Not every detail of the peptide structures is certain; ends, links or a residue may be inferred. Ends that are not written are not given here.
Tests used:
[1] = Analytical reversed-phase HPLC retention time as a measure of hydrophobicity; type: physicochemical; settings: for tRP, retention time on a reversed-phase HPLC column as a measure of hydrophobicity: Table 1, Vydac C18, acetonitrile 5% to 95%, 1 mL/min, ~25° C.
Procedure: Analytical Reversed-Phase HPLC. The retention time of the peptide was measured on an ISCO (Lincoln, Nebr.) HPLC system equipped with a Vydac (Hesperia, Calif.) C18 reversed-phase column (250×4.6 mm) at an ambient temperature of ˜25° C. The peptide was eluted with a linear gradient of acetonitrile (containing 0.1% TFA) from 5% to 95% at a flow rate of 1 mL/min. Peptides were detected by UV absorbance at 215 nm.
Analytical reverse-phase HPLC. The retention time of each peptide was measured on an ISCO HPLC system equipped with aVydac C18 reverse-phase column (250×4.6 mm). The peptide was eluted with a linear gradient of acetonitrile (containing 0.1% TFA) from 5% to 95% at a flow rate of 1 ml/min. Peptides were detected by UV absorbance at 215 nm.

wild type E. coli K12 = type: cell-based; settings: for antibacterial activity (in words): E. coli
Procedure: Antibacterial Assays. The antibacterial activity of the LL-37 peptides and its analogues was analyzed using the standard approach of microdilution (Wang et al. (2005) J. Biol. Chem., 280:5803-5811; Yu et al. (2002) J. Pept. Res., 60:1-9). In brief, a small culture of wild type E. coli K12 was grown overnight. A fresh culture was inoculated with a small aliquot of the overnight culture and incubated at 37° C. until the optical density reached the mid-logarithmic stage. The culture (90 μL each) was then diluted to an A600 of 0.001 and partitioned into a 96-well plate with ˜10^6 cells per well. […] Each peptide assay was repeated 3 times. The plate was then further incubated at 37° C. overnight (˜16 hours) and read on an Ultra Microplate Reader at 620 nm (Bio-TEK Instruments; Winooski, Vt.).

drug-resistant KBv = assay: Anticancer/cytotoxicity MTT assay, KBv cells; type: cell-based
Procedure: (§1) Anticancer Assays. Cytotoxicity studies were performed using the calorimetric MTT assays for assessing cell viability (Mark et al. (1999) Life Sci., 64:1941-1953; Hansen et al. (1989) J. Immunol. Methods, 119:203-210). Three cell lines were used, including drug-resistant KBv, drug-sensitive KB, and the nontransformed human brain microvessel endothelial cells (HBMEC). In brief, the cells were seeded onto 96-well plates at a density of 5000 cells per well. The cells were exposed to various concentrations (5-320 μM) of LL-37 peptides (triplicate assays for each) 24 hours after seeding. After 68 hours of exposure, the peptide solution was replaced with fresh media and followed by cytotoxicity analysis using the MTT assay.
(§2) The MTT assay was performed by incubating the cells with 5 mg/mL of 3-[4,5-dimethylthiazol-2-yl]-2,5-dephenyltetrazolium bromide (MTT) for 2 hours at 37° C. The cells were then solubilized in a 50:50 mixture of dimethyl formamide (DMF) and H2O containing 20% SDS (pH 4.7). The plates were read after overnight incubation. Viability is directly proportional to the amount of metabolic conversion of MTT to formazin in the mitochondria of living cells and is assessed by measuring the absorbance at 550 nm using a Microkinetics Reader (Fisher Biotech). Viability is expressed as a percent of control cells receiving only culture media without any peptides. […]

drug-sensitive KB = type: cell-based
Procedure: as §1, §2

Row | Substance | tRP, retention time on a reversed-phase HPLC column as a measure of hydrophobicity [1] [min] | retention time on reversed-phase HPLC (hydrophobicity) [1] [min] | antibacterial activity (in words) (wild type E. coli K12) | toxic effect on KBv cancer cells (in words) (drug-resistant KBv) | E. Coli MIC (wild type E. coli K12; minimum inhibitory concentration, wild type E. coli K12, overnight (~16 hours) at 37° C.) | toxic effect on KB cancer cells (in words) (drug-sensitive KB)
1 | FKRIVQRIKDFLR-NH2 [LL-37(17-29), FKRIVQRIKDFLR] | 37.2 | – | – | – | – | –
2 | FKRIVQRIKDFLRNLV-NH2 [LL-37(17-32), FKRIVQRIKDFLRNLV] | 42.0 | 42 | – | – | – | –
3 | IGKEFKRIVQRIKDFLRNLVPRTES [LL-37(13-37)] | 39.8 | – | toxic effects | toxic effects | – | –
4 | LLGDFFRKSKEK [LL-37(1-12), LLGDFFRKSKEK] | 26.6 | – | not active | not active | NE^c | not active
5 | LLGDFKRIVQRIKDF-NH2 [LL-37(1-4, 17-27), LLGDFKRIVQRIKDF] | 32.8 | – | largely no longer active | – | – | –

Source: patent publication US7985836B2, “Antimicrobial peptides and methods of identifying the same” (priority 2006, dated 2011)
